From US20020035246A1
These are yes or no findings as the source states them, for the method shown. Some entries that bind do so weakly or less than the wild type. Where a sequence is shown, tags or fusion partners need not be part of it.

The chains behind the UniProt entries cited, without tags or fusion partners. Where a name states a change or a piece, a line headed by the entry shows the natural chain unless it says otherwise.
UniProt P04386: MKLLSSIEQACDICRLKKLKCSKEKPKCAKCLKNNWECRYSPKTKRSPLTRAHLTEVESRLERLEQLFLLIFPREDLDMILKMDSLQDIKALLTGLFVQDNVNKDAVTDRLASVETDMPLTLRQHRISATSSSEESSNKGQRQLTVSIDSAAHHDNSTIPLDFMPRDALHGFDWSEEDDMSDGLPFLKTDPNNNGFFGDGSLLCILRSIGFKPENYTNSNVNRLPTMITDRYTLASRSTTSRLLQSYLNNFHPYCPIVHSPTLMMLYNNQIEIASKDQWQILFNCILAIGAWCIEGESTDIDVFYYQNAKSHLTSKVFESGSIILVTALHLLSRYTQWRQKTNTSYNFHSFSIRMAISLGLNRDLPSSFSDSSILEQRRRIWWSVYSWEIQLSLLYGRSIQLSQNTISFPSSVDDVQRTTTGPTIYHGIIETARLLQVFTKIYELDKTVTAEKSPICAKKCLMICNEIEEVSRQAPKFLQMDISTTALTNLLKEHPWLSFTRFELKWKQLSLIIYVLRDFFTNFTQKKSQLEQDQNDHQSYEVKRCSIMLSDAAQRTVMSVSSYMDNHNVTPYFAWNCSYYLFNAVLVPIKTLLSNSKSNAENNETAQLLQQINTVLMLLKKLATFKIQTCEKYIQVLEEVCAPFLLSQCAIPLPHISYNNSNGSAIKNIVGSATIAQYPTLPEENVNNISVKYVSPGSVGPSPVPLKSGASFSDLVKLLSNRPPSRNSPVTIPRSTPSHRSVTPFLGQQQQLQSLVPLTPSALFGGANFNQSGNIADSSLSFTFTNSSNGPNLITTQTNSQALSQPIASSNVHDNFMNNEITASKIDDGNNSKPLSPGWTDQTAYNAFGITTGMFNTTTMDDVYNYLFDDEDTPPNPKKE
UniProt Q62432: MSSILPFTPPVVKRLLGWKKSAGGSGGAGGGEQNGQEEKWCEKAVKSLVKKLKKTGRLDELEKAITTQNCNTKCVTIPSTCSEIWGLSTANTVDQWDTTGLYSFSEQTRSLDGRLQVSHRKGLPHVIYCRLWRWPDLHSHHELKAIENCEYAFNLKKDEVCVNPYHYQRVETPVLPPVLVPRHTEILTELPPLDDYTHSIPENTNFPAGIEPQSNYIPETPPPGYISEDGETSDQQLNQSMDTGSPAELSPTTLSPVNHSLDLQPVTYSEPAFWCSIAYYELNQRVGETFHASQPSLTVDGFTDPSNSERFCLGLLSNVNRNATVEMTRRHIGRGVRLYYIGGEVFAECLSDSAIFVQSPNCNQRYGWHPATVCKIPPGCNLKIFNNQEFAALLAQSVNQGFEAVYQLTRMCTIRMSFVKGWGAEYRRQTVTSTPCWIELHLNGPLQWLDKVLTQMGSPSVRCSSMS
UniProt P97454: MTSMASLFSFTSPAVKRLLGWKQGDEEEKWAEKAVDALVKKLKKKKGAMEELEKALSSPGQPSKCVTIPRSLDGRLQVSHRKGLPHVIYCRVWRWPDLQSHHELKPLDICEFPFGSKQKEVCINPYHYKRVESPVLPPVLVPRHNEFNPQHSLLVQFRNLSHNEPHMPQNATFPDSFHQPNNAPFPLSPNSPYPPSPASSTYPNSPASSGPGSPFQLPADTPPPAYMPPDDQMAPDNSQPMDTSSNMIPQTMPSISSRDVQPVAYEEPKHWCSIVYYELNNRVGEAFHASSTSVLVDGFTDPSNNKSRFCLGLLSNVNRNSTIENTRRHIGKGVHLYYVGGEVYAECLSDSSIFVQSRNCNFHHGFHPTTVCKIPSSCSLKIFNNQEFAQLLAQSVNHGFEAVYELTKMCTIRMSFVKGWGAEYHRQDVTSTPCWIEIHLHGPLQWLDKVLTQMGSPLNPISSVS
UniProt P70340: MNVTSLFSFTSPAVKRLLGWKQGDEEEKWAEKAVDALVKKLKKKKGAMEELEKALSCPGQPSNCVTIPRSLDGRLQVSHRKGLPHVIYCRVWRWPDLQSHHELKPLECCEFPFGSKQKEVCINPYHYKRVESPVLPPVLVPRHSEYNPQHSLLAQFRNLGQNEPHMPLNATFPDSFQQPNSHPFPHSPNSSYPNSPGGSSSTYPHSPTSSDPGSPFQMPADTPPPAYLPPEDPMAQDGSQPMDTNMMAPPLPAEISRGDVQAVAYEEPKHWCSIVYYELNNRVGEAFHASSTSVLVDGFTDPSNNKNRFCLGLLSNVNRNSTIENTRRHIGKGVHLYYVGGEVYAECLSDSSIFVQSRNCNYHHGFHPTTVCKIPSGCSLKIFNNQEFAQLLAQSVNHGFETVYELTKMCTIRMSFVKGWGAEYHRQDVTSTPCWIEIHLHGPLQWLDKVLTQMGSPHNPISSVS

Tests used:
Experiment in all cases: yeast two-hybrid
[1] = target: mouse SMAD2 C-domain bait (GAL4DBD fusion) (mouse) (UniProt P04386+Q62432)
[2] = target: mouse SMAD5 C-domain bait (GAL4DBD fusion) (mouse) (UniProt P04386+P97454)
[3] = target: mouse SMAD1 C-domain bait (GAL4DBD fusion) (mouse) (UniProt P04386+P70340)

Row | Binder | binding [1] | binding [2] | binding [3]
1 | SIP5 prey protein (th76; partial open reading frame fused to the GAL4 transactivating domain in pACT-2) (protein, not shown: small tags and cut ends) AEFQSADTRGALARASVGLRRCEPWVTTASSCCPHQDPPILNQEQKNVSASCISKKALTRAQFGGQVLHSKESPVRITVSKKNTFVLGGIDCTYEKFENTDVNTISSLCVPIKNHSQSITSDNDVTTERTAKEDITEPNEEMMSRRTILQDPIKNTSKIKRSSPRPNLTLSGRSQRKCTKLETVVKEVKKYQAVHLQEWMIKVINNNTAICVEGKLVDMTDVYWHSNVIIERIKHNELRTLSGNIYILKGLIDSVSMKEAGYPCYLTRKFMFGFPHNWKEHIDKFLEQLRAEKKNKTRQETARVQEKQKSKKKDAEDKETYVLQKASITYDLNDNSLERTEVPTDPLNSLEQPTSGKERRHPLLSQKRAYVLITPLRNKKLIEQRCIDYSLSIEGISDFFKAKHQEESDSDIHGTPSSTSKSQETFEHRVGFEGNTKEDCNECDIITARHIQIPCPKSKQMLTNDFMKKNKLPSKLQKTENQIGVSQYCRSSSHLSSEENEVEIKSRTRGSQ | binds | binds | –
2 | SIP1 (TH1) prey protein (GAL4TAD fused to the 626 aa polypeptide encoded by th1 cDNA) (protein, not shown: large carriers) CKKRFSHSGSYSSHISSKKCIGLISVNGRMRNNIKTGSSPNSVSSSPTNSAITQLRNKLENGKPLSMSEQTGLLKIKTEPLDFNDYKVLMATHGFSGSSPFMNGGLGATSPLGVHPSAQSPMQHLGVGMEAPLLGFPTMNSNLSEVQKVLQIVDNTVSRQKMDCKTEDISKLKGYHMKDPCSQPEEQGVTSPNIPPVGLPVVSHNGATKSIIDYTLEKVNEAKACLQSLTTDSRRQISNIKKEKLRTLIDLVTDDKMIENHSISTPFSCQFCKESFPGPIPLHQHERYLCKMNEEIKAVLQPHENIVPNKAGVFVDNKALLLSSVLSEKGLTSPINPYKDHMSVLKAYYAMNMEPNSDELLKISIAVGLPQEFVKEWFEQRKVYQYSNSRSPSLERTSKPLAPNSNPTTKDSLLPRSPVKPMDSITSPSIAELHNSVTSCDPPLRLTKSSHFTNIKAVDKLDHSRSNTPSPLNLSSTSSKNSHSSSYTPNSFSSEELQAEPLDLSLPKQMREPKGIIATKNKTKATSINLDHNSVSSSSENSDEPLNLTFIKKEFSNSNNLDNKSNNPVFGMNPFSAKPLYTPLPPQSAFPPATFMPPVQTSIPGLRPYPGLDQMSFLPHMAYTYP | binds | binds | binds
